Read-outs that look alike come from different tables or passages of the source.
Experiment: Permeability assay, everted rat gut model
Format: in vitro ADME, Wistar rats
Conditions: male, Wistar, 37 °C, A-B
Method: Male Wistar rats weighing 200–250 g were used in this research. Everted intestinal sacs were prepared by quickly removing the small intestine from starved rats killed under ether anesthesia. All experiments were carried out after pre-incubation at 37 ± 0.5 °C, with the duodenum and jejunum then excised, flushed-through several times with saline solution at room temperature, and placed immediately into simulated intestinal fluid (SIF). The intestine was gently everted over a steel rod and filled with fresh SIF. The sacs were preincubated in oxygenated buffer solution for 5 min and then placed in 100 mL of oxygenated SIF solution containing 0.0001 M (100 μM) of Compound 1 at 37 °C. Oxygen was bubbled with a pump to maintain viable tissue.
The everted intestinal sac was filled with 1.5 mL of SIF solution, while a test compound solution (0.0001 M) remained external to the everted sac. […] Both an initial and final sample of the outside solution were analyzed by HPLC.
The apparent intestinal permeability (Papp) was calculated according to Equation (2): (2) Papp=V/(A∗Co)dC/dt where Papp = Apparent Permeability (cm/s), V = Intestinal Volume (mL), A = Surface Area (cm^2), dC/dt = Concentration Gradient, and, Co = Initial Concentration (μg/mL).

- Papp at 120 min, 100 μM (duodenum, read-out: Papp Duodenum): 30.2 ×10⁻⁶ cm/s
- Papp at 120 min, 100 μM (jejunum, read-out: Papp Jejunum): 39.8 ×10⁻⁶ cm/s
SMILES: COc1ccc2cc([C@H](C)C(=O)O)ccc2c1 [Naproxen, naproxen]
